Data: patent US20230322935A1 (published 2023)
Results are given in words; binding and its absence hold for the method and conditions named. Some binding calls cover weakened binding; strength is not graded here.

The chains behind the UniProt entries cited, without tags or fusion partners. Residues count along the entry.
UniProt Q9NPY3, residues 22-580: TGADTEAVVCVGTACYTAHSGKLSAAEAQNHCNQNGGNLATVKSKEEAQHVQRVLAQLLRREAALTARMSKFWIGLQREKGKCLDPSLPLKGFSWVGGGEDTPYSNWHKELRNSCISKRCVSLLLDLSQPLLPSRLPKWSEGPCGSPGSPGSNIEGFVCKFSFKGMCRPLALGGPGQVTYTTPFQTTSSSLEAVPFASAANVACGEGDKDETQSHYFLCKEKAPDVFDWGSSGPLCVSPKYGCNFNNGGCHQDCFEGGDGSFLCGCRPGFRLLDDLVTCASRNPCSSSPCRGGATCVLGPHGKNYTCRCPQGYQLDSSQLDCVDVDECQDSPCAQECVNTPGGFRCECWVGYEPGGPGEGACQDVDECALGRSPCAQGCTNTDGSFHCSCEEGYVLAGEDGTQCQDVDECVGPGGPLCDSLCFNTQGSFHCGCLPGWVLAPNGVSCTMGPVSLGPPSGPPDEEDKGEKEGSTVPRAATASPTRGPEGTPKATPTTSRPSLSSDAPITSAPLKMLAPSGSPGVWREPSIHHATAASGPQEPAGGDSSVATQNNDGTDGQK

Molecular target: His-tagged human CD93 (human) (UniProt Q9NPY3)
Experiment: ELISA, His-tagged human CD93 coated at 1 µg/mL, anti-mouse Fc-HRP

binding: binds
B1: mouse MMRN2-mFc (Fc fusion, UniProt A6H6E2 23-943, looked up, not shown: a dimerising Fc or GST)
chain: QDPGTKFSHLNRPGMPEGWRLGAEDTSRDPIRRNWCPYQKSRLVTFVAACKTEKFLVHSQQPCPQGAPDCQGVRVMYRVAQKPVYQVQQKVLISVDWRCCPGFQGPDCQDHNPTANPEPTEPSGKLQETWDSMDGFELGHPVPEFNEIKVPQEQQENLLQNLQNDAQSVEDGFPGSWEAPPSNLTDEMTEANLTEFEFPGRTSEHLLQPHIDAFLKAHFSPIWKNFNDSLHSLSQAIRNLSLDVEANHQAIKMIQEGTVARADFQELGAKFEAKVQQNSQRLGQLWQDVEDQLHAQRRSVHHALSDVQAEVSTKLKQLVKAQELPGANGSLVMASAAAAARPEPESLQARLGQLQRNLSALHMVTSQREEELQSTLKNMDSVLKQHAEEIKELYSESDETFDQISKVERQVEELLVNHTGLRELRVILMEKSLIMEENKEEIERQLLELNLTLQHLHAGHADLIKYVKDCNCQRVNSDVDVAPEGHRDVMHTLEETQVSLDEQHQLDGSSLQALQSTVDAMSSAMDAYRGEGERARAERARIRSQLRALDHAVEALKTAANGTRKEIRLLHGSFTALLEDALRHQAVLAALFGEEMIDEMSEEAPRPLPLDYEQIRLALQDAASGLQEQAIGWEDLATRVEALEKAAGGFVEQHPQLAEGLEPSHDSGREEEAMTLAELEQEIRRLSSDVKQIGQCCEASWAASLNSSLEDLHSMLLDTQHGLRQHRQLFHNLFQNFQGLVASNISLDLGKLQAMLSKKDKKQPRGPGESRKRDKKQVVMSTDAHAKGLELWETGSPVAFYAGSSEGATALQMVKFNTTSINVGSSYFPEHGYFRAPKRGVYLFAVSITFGPGPGMGQLVFEGHHRVPVYSTEQRGGSTATTFAMVELQKGERAWFELIQGSATKGSQPGTAFGGFLMFKT
